Measurements reported in patent publication US6376666B1 (Nauchno-Issledovatelsky Institut Farmakologii Rossiiskoi …, priority 1994, dated 2002).
For some assays here: At least one compound was matched to its structure with a doubt left. Some entries share one result that the patent states for a list of compounds. Some compounds share one range, which may span the group rather than tell each member.

Legend:
[1] = tested on: outbred male rats; assay: conflict Vogel test (punished licking of water); assay type: in vivo; settings: doses from 1 mg/kg to 20 mg/kg i.p.
Protocol: The study of anxiolytic activity of chosen compounds was carried out in the experiments with outbred male rats weighing 180-200 g in standard conflict Vogel' procedure [Voronina T. A. et al., in: “Phenazepam”, Naukova Dumka, Kiev, 1982, p.89, 93, 146]. The main aim of the initial step of experiments was the training of rats to develop the feeling of thirst with following experience of water licking from bottle in the experimental chamber. The animals were deprived of water for 24 hours and were placed in the test chamber for 5-min adaptation period during which they had free access to the drinking bottle. After another 24 h deprivation period the rats were placed again in the test chamber and were allowed to drink water for 5 sec. Immediately afterwards drinking attempts were punished by electric shock (0,5 mA). Under this collision of drinking and protective reflexes the extremal situation was developed. In this situation the anxiety of punishment prevented the licking process. The number of shocks received throughout a 5-min experimental session was recorded.

[2] = tested on: Balb/c mice; assay: open-field test, Balb/c mice (passive type of emotional-stress reaction); assay type: in vivo; design: key: sum of all locomotor activity counts (crossings + rearings) in 3 min; settings: 1.0 mg/kg i.p., M ± mx
From the text: The main point of this approach consists in comparative analysis of the behavioural effects of tested compounds in two inbred strains of mice Balb/c and C57B1/6 with different hereditary types of emotional-stress reactions (ESR). The anxiolytic effect was estimated as the activation of the locomotor activity of animals with “passive” type of ESR (Balb/c mice). The main index describing the sedative properties of tested drugs was the inhibition of the locomotor activity of mice with “active” type of ESR (C57B1/6 strain). The anxioselectivity was evaluated according to coincidence of doses range which activated or inhibited the behavior of mice of different strains. […]
Male C57B1/6 and Balb/c mice (“Stolbovaya” animal farm), weighing 20-22 g were used. […] The following behavior variables were recorded: 1) the number of crossings in the peripheral area (peripheral activity); 2) the number of crossings in the central segments (central activity); 3) the number of rearings (vertical activity); 4) the emotionality was measured as the number of defecations during the test. […]

CCOc1ccc2nc(SCCN3CCOCC3)[nH]c2c1 [XII, 2-[2-(Morpholino)ethylthio]-5-ethoxybenzimidazole]
enhancement of punished licking of water in comparison with control [1]: 2-4 times

Cc1cc2nc(SCCN3CCOCC3)[nH]c2cc1C [XV, 2-[2-(Morpholino)ethylthio]-5,6-dimethylbenzimidazole]
enhancement of punished licking of water in comparison with control [1]: 2-4 times

Cc1cc2nc(SCCCN3CCN(C)CC3)[nH]c2cc1C [XVII, 2-[3-(4-Methylpyperazino)propylthio]-5,6-dimethylbenzimidazole]
Total activity [2]: 7.7 ± i.9

C=CCSc1nc2ccc(OCC)cc2[nH]1 [IV, 2-Allylthio-5-ethoxybenzimidazole]
enhancement of punished licking of water in comparison with control [1]: 2-4 times

Cc1cc2nc(SCCN3CCCCC3)[nH]c2cc1C [XIV, 2-[2-(Piperidino)ethylthio]-5,6-dimethylbenzimidazole]
enhancement of punished licking of water in comparison with control [1]: 2-4 times
